PubChem BioAssay AID1259254 | NCATS – 2017
Assay: 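Genome-wide screen for genes that prevent DNA re-replication in cancer cells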 (primary screen). Cell system: human HCT116 colorectal cancer cells. Reagents: single siRNA against human genes. Timing: 3 days. Measured: 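Imaged Hoechst DNA stain sorts each cell into a cycle phase by DNA amount; per plate, G2 fraction set to 0% for non-targeting and 100% for GMNN siRNA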. Direction: G2 robust z-score and G2 cells, % of GMNN control: higher = more G2 cells, more excess DNA replication; raw share of cells in G2: higher = larger share of cells with G2 DNA content. Call rule: 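Active siRNAs have a G2 robust z of 5 or more median absolute deviations over the median, which in these data means about 38% or higher of GMNN control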.
Here is a random part of about 59,000 deposited reagents. Of all reagents, about 1,550 (2.6%) are marked active. 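G2 share is only a proxy for re-replication; each gene was hit by three separate siRNAs, and active genes were retested.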 Raw values vary from plate to plate and are shown uncorrected. Entries without a mark were called inactive. Reagents against one gene are numbered here. Not stated in the record: the amount of reagent.

| gene knocked down | reagent no. | G2 robust z-score | G2 cells, % of GMNN control | raw share of cells in G2 (%) |
| --- | --- | --- | --- | --- |
| CCDC33 (GeneID 80125) | 1 | -0.171 | 1.76 | 5.18 |
| CCDC33 (GeneID 80125) | 2 | 4.32 | 33.4 | 18.9 |
| CCDC33 (GeneID 80125) | 3 | 0.61 | 7.26 | 4.36 |
| OR14I1 (GeneID 401994) | 1 | -1.06 | -4.47 | 2.19 |
| OR14I1 (GeneID 401994) | 2 | -0.314 | 0.759 | 3.82 |
| OR14I1 (GeneID 401994) | 3 | 0.0127 | 3.06 | 6.06 |
| ARL11 (GeneID 115761) | 1 | 5.85 (active) | 44.1 | 21.2 |
| ARL11 (GeneID 115761) | 2 | -0.146 | 1.94 | 6.57 |
| ARL11 (GeneID 115761) | 3 | -1.01 | -4.15 | 3.19 |
| ANXA10 (GeneID 11199) | 1 | -0.586 | -1.16 | 5.9 |
| ANXA10 (GeneID 11199) | 2 | -0.881 | -3.23 | 3.08 |
| ANXA10 (GeneID 11199) | 3 | -0.422 | 0.00182 | 3.87 |
| DUSP10 (GeneID 11221) | 1 | 7.09 (active) | 52.9 | 22 |
| DUSP10 (GeneID 11221) | 2 | 1.91 | 16.4 | 9.24 |
| DUSP10 (GeneID 11221) | 3 | -0.59 | -1.19 | 3.14 |
| SMG7-AS1 (GeneID 284649) | 1 | 0.207 | 4.42 | 4.61 |
| SMG7-AS1 (GeneID 284649) | 2 | -0.272 | 1.05 | 4.03 |
| SMG7-AS1 (GeneID 284649) | 3 | 1.04 | 10.3 | 7.02 |
| LRRC4B (GeneID 94030) | 1 | 1.06 | 10.4 | 10.5 |
| LRRC4B (GeneID 94030) | 2 | 1.62 | 14.3 | 11.1 |
| LRRC4B (GeneID 94030) | 3 | -0.531 | -0.765 | 4.19 |
| TRPC3 (GeneID 7222) | 1 | -0.554 | -0.927 | 4.95 |
| TRPC3 (GeneID 7222) | 2 | 0.528 | 6.68 | 7.04 |
| TRPC3 (GeneID 7222) | 3 | 0.308 | 5.13 | 6.38 |
| CIRBP (GeneID 1153) | 1 | -0.224 | 1.39 | 4.57 |
| CIRBP (GeneID 1153) | 2 | -0.994 | -4.03 | 3.52 |
| CIRBP (GeneID 1153) | 3 | 1.46 | 13.2 | 9.68 |
| DHCR7 (GeneID 1717) | 1 | 3.73 | 29.2 | 15.4 |
| DHCR7 (GeneID 1717) | 2 | 1.87 | 16.2 | 10.9 |
| DHCR7 (GeneID 1717) | 3 | -0.776 | -2.49 | 3.24 |
| GPANK1 (GeneID 7918) | 1 | 0.408 | 5.84 | 7.72 |
| GPANK1 (GeneID 7918) | 2 | -1.02 | -4.24 | 2.22 |
| GPANK1 (GeneID 7918) | 3 | -0.0827 | 2.39 | 4.19 |
| CERS4 (GeneID 79603) | 1 | -0.0372 | 2.71 | 5.76 |
| CERS4 (GeneID 79603) | 2 | -0.775 | -2.49 | 3.5 |
| CERS4 (GeneID 79603) | 3 | 1.81 | 15.7 | 6.84 |
| EIF2S2 (GeneID 8894) | 1 | 2.33 | 19.3 | 12.1 |
| EIF2S2 (GeneID 8894) | 2 | 1.25 | 11.8 | 9.88 |
| EIF2S2 (GeneID 8894) | 3 | 5.02 (active) | 38.3 | 18.4 |
| LOC729887 (retired record) (GeneID 729887) | 1 | -0.345 | 0.541 | 4.47 |
| LOC729887 (retired record) (GeneID 729887) | 2 | -0.407 | 0.102 | 3.37 |
| LOC729887 (retired record) (GeneID 729887) | 3 | -0.167 | 1.79 | 3.73 |
| TLCD3B (GeneID 83723) | 1 | 1.96 | 16.8 | 9.69 |
| TLCD3B (GeneID 83723) | 2 | 2.63 | 21.5 | 9.82 |
| TLCD3B (GeneID 83723) | 3 | -0.431 | -0.0659 | 2.39 |
| CIMIP6 (GeneID 129852) | 1 | 0.79 | 8.52 | 5.67 |
| CIMIP6 (GeneID 129852) | 2 | 3.19 | 25.4 | 13.8 |
| CIMIP6 (GeneID 129852) | 3 | 1.95 | 16.7 | 8.4 |
| IFT43 (GeneID 112752) | 1 | 0.715 | 8 | 7.3 |
| IFT43 (GeneID 112752) | 2 | -0.39 | 0.224 | 3.4 |
| IFT43 (GeneID 112752) | 3 | -0.757 | -2.36 | 1.13 |
| MYH4 (GeneID 4622) | 1 | 1.62 | 14.3 | 11.2 |
| MYH4 (GeneID 4622) | 2 | -0.139 | 1.99 | 6.13 |
| MYH4 (GeneID 4622) | 3 | 0.483 | 6.37 | 5.3 |
| ZSCAN5DP (GeneID 646698) | 1 | -0.746 | -2.28 | 2.92 |
| ZSCAN5DP (GeneID 646698) | 2 | -0.103 | 2.24 | 4.06 |
| ZSCAN5DP (GeneID 646698) | 3 | 2.08 | 17.6 | 8.63 |
| PRC1 (GeneID 9055) | 1 | 4.17 | 32.3 | 19.2 |
| PRC1 (GeneID 9055) | 2 | 7.35 (active) | 54.7 | 24.5 |
| PRC1 (GeneID 9055) | 3 | 11.9 (active) | 87 | 35.9 |
| IRF5 (GeneID 3663) | 1 | 0.15 | 4.02 | 6.51 |
| IRF5 (GeneID 3663) | 2 | -1.79 | -9.6 | 0.68 |
| IRF5 (GeneID 3663) | 3 | -0.819 | -2.8 | 4.62 |
| CYSRT1 (GeneID 375791) | 1 | -0.461 | -0.275 | 3.68 |
| CYSRT1 (GeneID 375791) | 2 | -0.202 | 1.54 | 4.08 |
| CYSRT1 (GeneID 375791) | 3 | -0.893 | -3.32 | 3.21 |
| CNN2 (GeneID 1265) | 1 | 3.37 | 26.7 | 17.8 |
| CNN2 (GeneID 1265) | 2 | 5.27 (active) | 40.1 | 18.8 |
| CNN2 (GeneID 1265) | 3 | 0.339 | 5.35 | 5.62 |
